Measurements reported in US20250206757A1 (GASHERBRUM BIO, INC., priority 2022, published 2025).

The chains behind the UniProt entries cited, without tags or fusion partners. Residues count along the entry.
UniProt P43220, 24-463 limits assumed: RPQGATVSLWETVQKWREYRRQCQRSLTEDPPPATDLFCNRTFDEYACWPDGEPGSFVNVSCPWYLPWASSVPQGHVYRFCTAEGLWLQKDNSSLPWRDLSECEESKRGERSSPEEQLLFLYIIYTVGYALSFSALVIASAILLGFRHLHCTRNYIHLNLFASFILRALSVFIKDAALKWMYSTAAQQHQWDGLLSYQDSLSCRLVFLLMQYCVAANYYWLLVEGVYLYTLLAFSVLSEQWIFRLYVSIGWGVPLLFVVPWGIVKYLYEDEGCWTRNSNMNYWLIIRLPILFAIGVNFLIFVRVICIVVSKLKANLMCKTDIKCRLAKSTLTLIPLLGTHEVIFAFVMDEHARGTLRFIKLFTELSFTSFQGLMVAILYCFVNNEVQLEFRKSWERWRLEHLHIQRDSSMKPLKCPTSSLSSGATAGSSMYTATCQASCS

The compounds below were run against GLP-1 Receptor (Homo sapiens, UniProt P43220) (assay: GLP-1R agonist cAMP stimulation assay (HEK293/GLP1R/CRE-LUC cells, HTRF cAMP dynamic 2 kit)). Settings: read-out: Activity (EC50, GLP-1R agonist cAMP stimulation); HEK293/CRE-Luc cell line stably expressing the GLP-1 Receptor; 30 min incubation at 37° C.
Procedure: Activation of GLP-1 receptor is known to stimulate cyclic AMP (cAMP) production in cells which indicates primary coupling to the Gas subunit of the G protein heterotrimeric complex.
To optimize functional activity directed toward Gas coupling, a HEK293/CRE-Luc cell line developed by HDB stably expressing the GLP-1 Receptor was used. 200× concentration of compound working solutions were prepared (Agilent Technologies Bravo) with 1/2 log serial dilution in 384-well Echo LDV plate (Labcyte, Cat #LP-0200). 50 nL/well 200× concentration of compound working solutions were moved to 384-well white low volume plate (Greiner, Cat #784075) using Labcyte ECHO550. 1×10^5 cells/mL HEK293/GLP1R/CRE-LUC (HD Biosciences) cell suspensions prepared with assay buffer [DPBS containing 0.5 mM IBMX (Sigma, Cat #15879) and 0.10% BSA (GENVIEW, Cat #FA016-100g)], 10 μL cell suspensions were added to each well of previous generated assay plate which already contains 50 nL compound at 200× concentration using ThermoFisher Multidrop Combi (1000 cells/well). Seal the plate and incubate at 37° C. with 5% CO2 for 30 min.
After incubation the cAMP assay signal was generated using cAMP dynamic 2 Kit (Cisbio). 5 μL cAMP-d2 working solution was added to each well, followed with 5 μL Anti-cAMP antibody-cryptate working solution added to each well using ThermoFisher Multidrop Combi. Incubate at room temperature for 1 hour protected from light. Read the fluorescence at 665 and 615 nm with Reader PerkinElmer EnVision.

First: O=c1[nH]cccc1-c1cc2nc(CN3CCc4cc(C(F)(F)F)c(OCc5ccc(Cl)cc5F)nc4C3)n(C[C@@H]3CCO3)c2cn1
Second: O=c1[nH]c(-c2cc3nc(CN4CCc5cc(C(F)(F)F)c(OCc6ccc(Cl)cc6F)nc5C4)n(C[C@@H]4CCO4)c3cn2)no1
The EC50 of the first is higher: 1 to 300 nM for the first, less than 1 nM for the second. The second is the more potent here.

`N#Cc1nnc(-c2cc3nc(CN4CCc5cc(C(F)(F)F)c(OCc6ccc(Cl)cc6)nc5C4)n(C[C@@H]4CCO4)c3cn2)[nH]1` and `Fc1cc(Cl)ccc1COc1nc2c(cc1C(F)(F)F)CCN(Cc1nc3cc(-c4nnc(C(F)F)[nH]4)ncc3n1C[C@@H]1CCO1)C2` cannot be ordered by EC50: less than 1 nM for the first, less than 1 nM for the second.

Structures were worked out from names or drawings and are uncertain.
